Experimental data from patent publication US20220142990A1, “EXTERNAL PREPARATION FOR TREATING A VASCULAR ANOMALY” (OSAKA UNIVERSITY, priority 2019, published 2022).

Experiment: Solubility of sirolimus in diethylene glycol monoethyl ether
Format: physicochemical
Settings: solvent diethylene glycol monoethyl ether
Excerpt: Sirolimus or the sirolimus derivative is soluble in the diethylene glycol ether. Sirolimus dissolves well in the diethylene glycol monoethyl ether, and can be dissolved therein at up to 2.02 W/V %.

- solubility in diethylene glycol monoethyl ether: up to 2.02 W/V %
SMILES: CO[C@H]1C[C@@H]2CC[C@@H](C)[C@@](O)(O2)C(=O)C(=O)N2CCCC[C@H]2C(=O)O[C@H]([C@H](C)C[C@@H]2CC[C@@H](O)[C@H](OC)C2)CC(=O)[C@H](C)/C=C(\C)[C@@H](O)[C@@H](OC)C(=O)[C@H](C)C[C@H](C)/C=C/C=C/C=C/1C [Sirolimus, sirolimus]
